In PubChem BioAssay AID624297 (National Center for Advancing Translational Sciences (NCATS), 2012):
Among all 340,000 compounds or so, about 6,200 (1.8%) were called active. The shares of active, inactive and inconclusive entries below differ from those in the screen. Calls follow the shape of the dose curve; as a rule, active = well fitted activation curve with a large enough effect; inconclusive = small, poorly fitted or top-dose-only effect; inactive = no such curve, though single readings can be large or run the other way. A potency beside an inconclusive call is a rough fit, not a confirmed value.

test: A quantitative high throughput screen for small molecules that induce DNA re-replication in SW480 colon adenocarcinoma cells.; also: nearly all actives have a fitted effect of over 55% in size; as to re-replication activation: % of control where 0% means no effect; conditions: Hoechst DNA content imaging, 48 h; re-replication activation: at 46.1 µM (top of the series) unless noted
Outline: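 Quantitative HTS format with DMSO vehicle controls; 48 hr drug incubation at 37 C, then 40 min Hoechst staining and scanning imager measurement at 405 nm excitation.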
Potency is read from the fitted curve at half-maximal effect.

Q: Which Potency does the source give for `COc1ccc(NC(=S)NC(NC(=O)CCl)C(Cl)(Cl)Cl)c([N+](=O)[O-])c1` (stereo unspecified) here?
A: inconclusive: 20.6 µM [activator, single point]

Q: For `Cc1cc(N(C)Cc2ccccc2)nc(-c2ccccc2)n1`, which Potency is on record?
A: inconclusive: 29.1 µM [activator, single point]

Q: For `CN(C)C1=NC[C@H](Cc2ccccc2)N1CC1CCCCCC1`, which Potency is on record?
A: inactive

Q: With `C#CCOCCOCCOCCNc1nc(N2CCN(C(=O)[C@H](C(C)C)n3cc(CCO)nn3)CC2)nc(N2CCN(C(=O)[C@H]([C@@H](C)CC)n3cc(CCC(=O)O)nn3)CC2)n1` as the molecule, how does the Potency read?
A: inconclusive: 1.84 µM [activator, partial curve, poor fit]

Q: Which Potency does the source give for `CCN(CC)CCC(=O)N1c2ccccc2Sc2ccc(Cl)cc21` here?
A: active: 14.1 µM

Q: For `O=C(Nc1cccc(N=Cc2cc(Cl)cc(Br)c2O)c1)c1ccco1`, which Potency is on record?
A: inactive

Q: Which Potency does the source give for `CSc1ccccc1C(=O)OCC(=O)N1CCN(C(C)=O)CC1` here?
A: inconclusive: 29.1 µM [activator, single point]

Q: For `Cc1cccc(CSc2nc3c(c(-c4cccs4)c2C#N)CN(C)CC3)c1`, which Potency is on record?
A: inactive

Q: With `COc1ccc(CCN(C)C(=S)Nc2cccc(C)c2)cc1OC` as the molecule, how does the Potency read?
A: inactive

Q: Which Potency does the source give for `O=C(NC(=S)NNC(=O)c1ccccc1O)c1ccc(F)cc1` here?
A: inconclusive: 20.6 µM [activator, single point]

Q: With `Cc1cc(C(=O)NN=Cc2ccc(-c3ccc(F)cc3)o2)c(C)o1` as the molecule, how does the Potency read?
A: inactive

Q: With `CC(C)(C)c1ccc(C(=O)CC(Sc2ccc(Cl)cc2)C(=O)O)cc1` (stereo unspecified) as the molecule, how does the Potency read?
A: inconclusive: 16.4 µM [activator, single point]

Q: With `Cn1/c(=N/NC(=O)c2ccccc2F)sc2ccccc21` as the molecule, how does the Potency read?
A: inactive

Q: With `O=C(CCC1CCCCC1)NCCN1C2=NC[C@H](Cc3ccccc3)N2C[C@H]1Cc1ccc(O)cc1` as the molecule, how does the Potency read?
A: inconclusive: 0.259 µM [activator, partial curve]

Q: Which Potency does the source give for `O=c1c2ccccc2[nH]c(=S)n1CCCn1ccnc1` here?
A: inconclusive: 29.1 µM [activator, single point]

Q: Which Potency does the source give for `COc1cc(SC)ccc1C(=O)NC1CCCc2ccccc21` (stereo unspecified) here?
A: inconclusive: 5.8 µM [activator, full curve, poor fit]

Q: For `Cc1ccc(NC(=O)Nc2ccc(F)cc2)cc1Cl`, which Potency is on record?
A: inconclusive: 9.2 µM [activator, partial curve]

Q: For `COc1ccc(-n2nc(C(=O)NCC(=O)Nc3cc(OC)c(OC)c(OC)c3)c3ccccc3c2=O)cc1OC`, which Potency is on record?
A: inactive

Q: For `CCN(CC)c1ccc(S(=O)(=O)Nc2cc(Cl)ccc2Cl)cc1NC(=S)NC(=O)C1CCCC1`, which Potency is on record?
A: inactive

Q: With `Cc1ccccc1NC(=O)CC1SC(=O)N(c2ccccc2)C1=O` (stereo unspecified) as the molecule, how does the Potency read?
A: inconclusive: 0.13 µM [activator, partial curve, poor fit]

Q: For `Cc1cc(C(=O)Nc2c(C)nn(Cc3ccccc3Cl)c2C)no1`, which Potency is on record?
A: inactive

Q: For `CCN(Cc1ccc(Cl)s1)C(=O)c1cccc(OCc2c(C)noc2C)c1`, which Potency is on record?
A: inactive

Q: For `COc1nc(-c2cnccn2)sc1C`, which Potency is on record?
A: inactive

Q: For `C=CCC[C@@H](Cc1ccc(F)cc1)C(=O)OC[C@@H](Cc1c[nH]c2ccccc12)NC(=O)[C@@H](CC=C)CC(=O)N(CCO)Cc1ccccc1`, which Potency is on record?
A: inconclusive: 20.6 µM [activator, partial curve, poor fit]

Q: With `N#Cc1c(N)n(C2OC(CO)C(O)C2O)c2ncnc(N)c12` (stereo unspecified) as the molecule, how does the Potency read?
A: inconclusive: 0.184 µM [activator, full curve, poor fit]

Q: For `COc1ccc(NC(=S)/N=C(\N)Nc2nc(C)c3ccccc3n2)cc1`, which Potency is on record?
A: inactive

Q: With `O=C(Cn1c(SCC(=O)N2CCc3ccccc3C2)nc2ccccc21)NC1CCCC1` as the molecule, how does the Potency read?
A: inactive

Q: With `Clc1ccc(C2CC(c3cccs3)n3ncnc3N2)cc1` (stereo unspecified) as the molecule, how does the Potency read?
A: inconclusive: 3.66 µM [activator, partial curve, poor fit]

Q: Which Potency does the source give for `O=[N+]([O-])c1ccc(-c2ccc(/C=N/Nc3nc(N4CCCC4)nc(N4CCCC4)n3)o2)cc1` here?
A: inconclusive: 6.51 µM [activator, single point]

Q: With `Cc1ccc(OCC(=O)c2cc(C)n(CC(F)(F)F)c2C)c([N+](=O)[O-])n1` as the molecule, how does the Potency read?
A: inconclusive: 29.1 µM [activator, single point]

Q: For `Cc1ccc2occ(/C=N/NC(=O)c3ccccc3O)c(=O)c2c1`, which Potency is on record?
A: active: 18.4 µM

Q: Which Potency does the source give for `Cc1ccc(S(=O)(=O)NCC(=O)Nc2ccc(C(F)(F)F)cc2)cc1` here?
A: inactive

Q: With `N#Cc1c(N)n(-c2ccccc2N)c2nc3ccccc3nc12` as the molecule, how does the Potency read?
A: inconclusive: 20.6 µM [activator, single point]

Q: For `CC(=NO)C1CCC2C3CCC4CC(=NO)CCC4(C)C3C(C)(O)CC12C` (stereo unspecified), which Potency is on record?
A: inactive

Q: Which Potency does the source give for `COc1ccc(OCCCC(=O)N(CCC2=CCCCC2)c2c(N)n(Cc3ccccc3)c(=O)[nH]c2=O)cc1` here?
A: inconclusive: 29.1 µM [activator, single point]

Q: Which Potency does the source give for `CN1CCC(Oc2ccccc2Sc2ccccc2)CC1` here?
A: inconclusive: 20.6 µM [activator, single point]

Q: Which Potency does the source give for `COc1cc(OC)c(OC)cc1/C=N/NC(=O)CCc1c(C)n[nH]c1C` here?
A: inactive

Q: Which Potency does the source give for `COc1cc(NC(=O)Cc2ccc(OC)c(S(=O)(=O)N3CCOCC3)c2)c(OC)cc1Cl` here?
A: inconclusive: 18.4 µM [activator, partial curve, poor fit]

Q: With `O=C(O)CCC(=O)N1CCN(c2nc(-c3ccccc3)c3ccccc3n2)CC1` as the molecule, how does the Potency read?
A: inactive

Q: For `CC(=O)NCCC(=O)Nc1nc(-c2cccs2)c(-c2cccs2)s1`, which Potency is on record?
A: inactive

Q: With `CCOC(=O)[C@H]1[C@H]2COc3ccc(Br)cc3[C@@H]2N2C(=O)c3ccc(Cl)cc3NC(=O)[C@@]12C` as the molecule, how does the Potency read?
A: inactive

Q: For `COC(=O)c1ccc(CSc2nnc(Nc3ccc(OC)cc3)s2)o1`, which Potency is on record?
A: inactive

Q: For `O=C(NNC(=O)c1cc(Cl)ccc1O)c1cccs1`, which Potency is on record?
A: active: 20.6 µM

Q: For `COc1ccccc1N1CCN(S(=O)(=O)CCNC(=O)Cc2ccc(F)cc2)CC1`, which Potency is on record?
A: inconclusive: 29.1 µM [activator, single point]

Q: For `O=C(NN1C(=O)c2ccccc2NC1c1ccc([N+](=O)[O-])o1)c1ccc(Br)cc1` (stereo unspecified), which Potency is on record?
A: inconclusive: 0.0731 µM [activator, full curve, poor fit]

Q: Which Potency does the source give for `CN1C(=O)C(CCC(N)=O)NC1=S` (stereo unspecified) here?
A: inconclusive: 29.1 µM [activator, single point]

Q: For `CC[C@@H](C)C(NC(=O)OC(C)(C)C)c1cn([C@@H](CCC(=O)OC(C)(C)C)C(=O)N2CCN(C(=O)OC(C)(C)C)CC2)nn1` (stereo partly specified), which Potency is on record?
A: inconclusive: 25.9 µM [activator, single point]

Q: For `O=C(Nc1ccc2oc(=O)ccc2c1)c1ccc(-c2cccc(Cl)c2)o1`, which Potency is on record?
A: inconclusive: 14.6 µM [activator, single point]

Q: Which Potency does the source give for `Cc1ccc(N2CCN(C(=S)Nc3ccccc3C)CC2)cc1` here?
A: inconclusive: 0.58 µM [activator, full curve, poor fit]

Q: With `CC(O)c1nc2ccccc2n1C/C=C/c1ccccc1` (stereo unspecified) as the molecule, how does the Potency read?
A: inactive

Q: Which Potency does the source give for `COc1cc2c(cc1NC(=S)Nc1cccc(C)c1)oc1ccccc12` here?
A: inconclusive: 35.5 µM [activator, partial curve, poor fit]

Q: Which Potency does the source give for `Cc1ccc2c(c1)Oc1ccc(NC(=O)CCCl)cc1C(=O)N2` here?
A: inconclusive: 16.4 µM [activator, single point]

Q: With `COc1cccc2sc(Nc3nc(C)c(C(C)=O)s3)nc12` as the molecule, how does the Potency read?
A: inconclusive: 10.3 µM [activator, partial curve]

Q: For `COc1ccc(-c2cc3ccccc3nc2N)cc1OC`, which Potency is on record?
A: inconclusive: 2.31 µM [activator, partial curve, poor fit]

Q: With `O=C(N/N=C1\C2CN3CCN(C2)CC1(c1ccccc1)C3)c1ccc(F)cc1` as the molecule, how does the Potency read?
A: inconclusive: 29.1 µM [activator, single point]

Q: With `CCN1C(=O)c2cccc3c(S(=O)(=O)N4CCC(C)CC4)ccc1c23` as the molecule, how does the Potency read?
A: inconclusive: 23.1 µM [activator, single point]

Q: For `COc1ccc(CCN2C(=O)CSC2=S)cc1OC`, which Potency is on record?
A: active: 14.6 µM

Q: Which Potency does the source give for `S=C(NCC1(c2ccccc2)CCCC1)Nc1ccccc1` here?
A: inactive

Q: Which Potency does the source give for `CCn1c(NCc2ccc(N(C)C)cc2)nc2ccccc21` here?
A: inconclusive: 29.1 µM [activator, single point]

Q: For `O=C(N/N=C/c1cc(Cl)cc([N+](=O)[O-])c1O)C1CC1`, which Potency is on record?
A: inactive

Q: Which Potency does the source give for `O=C(C1=C[C@@H](C2CCCCC2)C[C@@H](OCCCCO)O1)N1CCN(Cc2ccccc2)CC1` here?
A: inactive

Q: For `CC(=O)CSc1nc(-c2ccccc2)c(-c2ccccc2)o1`, which re-replication activation is on record?
A: inconclusive: 1.97% [activator]

Q: Which Potency does the source give for `Cc1ccc(NC(=O)c2ccc([N+](=O)[O-])o2)cc1C` here?
A: inconclusive: 2.06 µM [activator, full curve, poor fit]

Q: With `CC(C)(C)OC(=O)N1Cc2ccccc2C[C@H]1C(=O)N1CCC[C@H]1C(=O)O` as the molecule, how does the Potency read?
A: inactive

Q: For `Cc1ccc2nc(C)cc(N/N=C/c3cccc(O)c3)c2c1`, which Potency is on record?
A: inactive

Q: Which re-replication activation does the source give for `CC(=O)C1(O)Cc2c(O)c3c(c(O)c2C(OC2CC(N)C(O)C(C)O2)C1)C(=O)c1c(O)cccc1C3=O` (stereo unspecified) here?
A: inconclusive: -18.9% [activator]

Q: With `Cn1c2ccccc2c(=O)c2ccc(C#CC3(N)CCCCC3)cc21` as the molecule, how does the Potency read?
A: inconclusive: 20.6 µM [activator, single point]

Q: For `Oc1ccc(N=Nc2ccccc2C(F)(F)F)c2cccnc12`, which Potency is on record?
A: inconclusive: 5.17 µM [activator, partial curve, poor fit]

Q: For `CCc1ccc(CN2CCC(n3nccc3NC(=O)c3ccccc3)CC2)o1`, which Potency is on record?
A: inconclusive: 25.9 µM [activator, single point]

Q: Which Potency does the source give for `CN(C)c1cccc(F)c1C(=O)NC(=O)Nc1ccc(Cl)cc1` here?
A: inconclusive: 20.6 µM [activator, single point]

Q: For `CCN(C(=O)C1CCN(c2nc(-c3ccc(OC)cc3)no2)CC1)c1ccc(OC)cc1`, which Potency is on record?
A: inactive
